The index is printed as in the source, without its formula.
Test system: PNT1A cells
Assay: MTT cytotoxicity assay against normal epithelial cell line PNT1A
Format: cell-based
Conditions: for Therapeutic index: Table S1, calculated as an indication of toxicity, PNT1A versus HeLa; for therapeutic index (approximate): cytotoxicity against normal epithelial cell line PNT1A
Description: The 3-(4,5-dimethylthiazol-2-yl)-2,5-diphenyltetrazolium bromide (MTT) assay was employed to evaluate the antiproliferative activities of the synthesized 7-deazahypoxathine analogues. The HeLa, PNT1A, or PANC-1 cell lines were assessed by trypsinizing and seeding 4 × 10^3 cells per well into 96-well plates. Synthesized compounds were dissolved in DMSO at a concentration of either 50 mM or 100 mM before cell treatment. Cells were grown for 24 h and then treated with compounds at concentrations ranging from 0.04 to 100 μM and incubated for 48 h in 200 μL media. Twenty microliters of MTT reagent in serum-free medium (5 mg/mL) was added to each well and incubated further for 2 h. Media was removed and the resulting formazan crystals were resolubilized in 200 μL of DMSO. A Thermomax Molecular Device plate reader was utilized to measure A490. Experiments were performed in quadruplicate and repeated at least twice for each compound. The control comprised of cells treated with 0.1% DMSO. One micromolar phenyl arsine oxide (PAO) was utilized as a positive killing control.

Compound | Therapeutic index | therapeutic index (approximate) [fold]
C#CCCCc1nc(=O)c2c(-c3ccccc3)c(C(=O)c3ccccc3C)[nH]c2[nH]1 [Compound 21, 6-(2-Methylbenzoyl)-2-(pent-4-yn-1-yl)-5-phenyl-1,7-dihydro-4H-pyrrolo[2,3-d]pyrimidin-4-one] | 0.9 | ~2
C#CCCCc1nc(=O)c2c(-c3ccccc3)c(C(=O)c3ccc(OCCOCC)cc3)[nH]c2[nH]1 [Compound 33, 6-[4-(2-Ethoxyethoxy)benzoyl]-2-(pent-4-yn-1-yl)-5-phenyl-1,7-dihydro-4H-pyrrolo[2,3-d]pyrimidin-4-one] | 1.6 | 
6-[4-(2-Ethoxyethoxy)benzoyl]-5-(3-fluorophenyl)-2-(pent-4-yn-1-yl)-1,7-dihydro-4H-pyrrolo[2,3-d]pyrimidin-4-one [Compound 59] | 2.6 | ~2
